Results from patent US12274703B2, “Compositions and methods of treatment for neurological disorders comprising a dementia” (Gliapharm SA, priority 2017, dated 2025).
Where a name gives a salt, the structure may show the parent alone.

What was measured:
[1] = tested on: astrocytes; assay: MTT viability assay; assay type: cell-based; conditions: Mus musculus, Astrocyte; Prestwick hits; cellular toxicity, 0-200 uM, 24 h
Procedure: Primary cultures of cerebrocortical astrocytes were obtained from 1-2-day-old OF1 mouse pups (Charles River Laboratories). Briefly, cortices were isolated and minced in small pieces under a dissecting microscope. The cells were incubated for 30 min at 37° C. in a solution containing 20 U/ml of papain enzyme (Worthington Biochemical), L-cysteine 1 mM (Sigma), and 10 kU/ml DNase I (Worthington Biochemical) for an enzymatic dissociation. Papain activity was stopped by the addition of fetal calf serum (FCS) to the solution, and a single-cell suspension was then obtained by mechanical dissociation, which consisted in cells trituration in a DMEM (D7777, Sigma-Aldrich) medium (supplemented with 44 mm NaHCO3, and 10 ml/L antibiotic/antimycotic solution) containing 10% FCS. The cells were seeded at an average density of 6×10^4 cells/cm^2 in poly-D-lysine-coated 96, 12 or 6-well culture plates, depending on their use, and incubated at 37° C. in a humidified atmosphere containing 5% CO2/95% air. Culture medium was renewed twice per week. Cells were stimulated and harvested between DIV14 and DIV17, when confluence and cell growth were optimal. […]
The amount of reduced MTT (formazan) solubilized in DMSO was then determined spectrophotometrically using absorbance at 570 nm (Safire 2; Tecan). […]

[2] = tested on: astrocytes; assay: Extracellular lactate quantification; assay type: cell-based; conditions: Mus musculus, Astrocyte, 1.5 h; Prestwick hits; 0-100 μM, 90 min
Procedure: Primary cultures of cerebrocortical astrocytes were obtained from 1-2-day-old OF1 mouse pups (Charles River Laboratories). Briefly, cortices were isolated and minced in small pieces under a dissecting microscope. The cells were incubated for 30 min at 37° C. in a solution containing 20 U/ml of papain enzyme (Worthington Biochemical), L-cysteine 1 mM (Sigma), and 10 kU/ml DNase I (Worthington Biochemical) for an enzymatic dissociation. […]
Secretion of L-lactate was determined in the extracellular medium of 96-well plated astrocytes after 90 min stimulation (at 37° C., in 5% CO2/95% air conditions) with the drug of interest. […]
Briefly, 200 μl of a Glycine (Sigma)-Semicarbazide (Acros) 0.2M pH 10 buffer containing 3 mM NAD (Roche) and LDH 14 U/ml (Roche) was added to each well of a 96-well plate containing 30 μl aliquots complemented with 20 μl fresh complete D5030 medium. […] After samples cooled down at room temperature, the fluorescence intensity (340 nm excitation/450 nm emission) that represents the amount of NADH produced was measured, and lactate concentration values were determined from a standard curve of L-lactate.
Levels of lactate secreted by astrocytes were measured in the extracellular medium at 90 min after stimulation with 20 hits from the Prestwick library (10 μM each), as shown in FIG. 1. n=6-10; Ctrl pos. is CCCP (2 uM). […]

SMILES | IC50 [1] [µM] | EC50 [2] [µM]
O=c1n(CCCN2CCN(c3cccc(Cl)c3)CC2)nc2ccccn12 [Trazodone hydrochloride, trazodone, reference compound] | > 200 | 11
Clc1ccc2c(c1)CCc1cccnc1C2=C1CCNCC1 [Desloratadine] | 11 | 2.1
